PubChem BioAssay AID1159578 – Peter MacCallum Cancer Centre | 2015
The deposit covers about 18,000 reagents; below is a part drawn at random. About 1,030 of them (5.7%) were called active. 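Inactive calls also include pools with fewer than 3300 nuclei, whose migration was not assessed.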 Raw values are not corrected between plates. A number with no mark means an inactive call.

Test: 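Genome-wide hunt for genes controlling movement of lymphatic endothelial cells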 (primary screen)
Cell system: human lymphatic endothelial cells
Reagent: siRNA pool against human genes, 40 nM
Duration: 48 h after transfection
Detection: 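Cells stained with dye and imaged after a scratch; covered wound area and nuclei counted, duplicates averaged, migration set against mock wells and turned into a robust z-score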
Direction: migration robust z-score: higher = faster migration into the scratch; migration relative to mock: higher = more scratch area covered than mock; nuclei per well: higher = more cells in the well
Call rule: 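Migration changed when robust z exceeds 2 or falls below -2 and mean nuclei number is at least 3300; otherwise not called changed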
Meaning of the calls: active = migration changed; inactive = no migration change, or too few cells

no.	target gene	migration robust z-score	migration class with cell-count check	migration relative to mock	nuclei per well, duplicate mean
1	OR7D2	1.36	migration z between -2 and 2; enough cells	1.23	5648
2	BTK	-4.67 (active)	migration z below -2; enough cells	-0.1	3694
3	DHX58	-1.66	migration z between -2 and 2; enough cells	0.48	5976
4	VAV3	-2.1 (active)	migration z below -2; enough cells	0.4	3856
5	RNF125	0.6	migration z between -2 and 2; enough cells	0.92	5842
6	MAPK7	-0.94	migration z between -2 and 2; enough cells	0.62	3970
7	YY1AP1	1	migration z between -2 and 2; enough cells	1.14	4882
8	NOP10	0.38	migration z between -2 and 2; enough cells	0.98	4156
9	GBA3	-1.29	migration z between -2 and 2; enough cells	0.55	5514
10	EFCAB14	-0.88	migration z between -2 and 2; enough cells	0.66	6270
11	SGCE	-0.35	migration z between -2 and 2; enough cells	0.8	5374
12	CEACAM6	-0.68	migration z between -2 and 2; enough cells	0.71	5492
13	ATP2B1	-0.37	migration z between -2 and 2; enough cells	0.79	6820
14	FAIM	0.9	migration z between -2 and 2; enough cells	1.12	6994
15	NAA38	-1.31	migration z between -2 and 2; enough cells	0.54	3666
16	BUD13	0.83	migration z between -2 and 2; enough cells	1.1	5939
17	OR5AR1	-0.68	migration z between -2 and 2; enough cells	0.71	5446
18	C21orf91	-0.09	migration z between -2 and 2; enough cells	0.86	6478
19	EPHA4	1.79	migration z between -2 and 2; enough cells	1.15	6545
20	POLR2J3	-0.11	migration z between -2 and 2; enough cells	0.86	5049
21	XIRP2	-0.11	migration z between -2 and 2; enough cells	0.86	5937
22	TMEM138	2.11 (active)	migration z above 2; enough cells	1.43	6216
23	CAMTA2	2.1 (active)	migration z above 2; enough cells	1.43	5814
24	SLC35F5	-0.03	migration z between -2 and 2; enough cells	0.88	6306
25	PPCS	0.68	migration z between -2 and 2; enough cells	0.94	5568
26	SIPA1L1	-0.28	migration z between -2 and 2; enough cells	0.82	4912
27	TET2	2.4 (active)	migration z above 2; enough cells	1.5	7480
28	MYO1E	-2.13 (active)	migration z below -2; enough cells	0.4	7284
29	EIF2AK4	-0.13	migration z between -2 and 2; enough cells	0.78	6592
30	ASL	0.76	migration z between -2 and 2; enough cells	0.95	5788
31	ABAT	0.42	migration z between -2 and 2; enough cells	0.88	5252
32	MISP	-0.91	migration z between -2 and 2; enough cells	0.65	5265
33	IL17REL	0.17	migration z between -2 and 2; enough cells	0.93	5602
34	NEUROD6	0.04	migration z between -2 and 2; enough cells	0.9	4869
35	IL1R1	-0.31	migration z between -2 and 2; enough cells	0.74	5398
36	COMP	-0.01	migration z between -2 and 2; enough cells	0.89	4676
37	RPAP1	0.07	migration z between -2 and 2; enough cells	0.9	5098
38	TSPAN6	0.3	migration z between -2 and 2; enough cells	0.97	6795
39	STAU1	2.2 (active)	migration z above 2; enough cells	1.46	7074
40	ESRP2	-1.75	migration z between -2 and 2; enough cells	0.42	4786
41	TSPAN33	0.31	migration z between -2 and 2; enough cells	0.96	6336
42	ZNF223	-2.34 (active)	migration z below -2; enough cells	0.28	4508
43	EEF1AKMT1	0.78	migration z between -2 and 2; enough cells	1.09	6266
44	RPS6KC1	-0.78	migration z between -2 and 2; enough cells	0.66	4776
45	RPE	-0.86	migration z between -2 and 2; enough cells	0.64	4646
46	SH2D1A	-1.77	migration z between -2 and 2; enough cells	0.43	5239
47	PARP2	1.03	migration z between -2 and 2; enough cells	1	5218
48	KMT2B	1.22	migration z between -2 and 2; enough cells	1.04	5314
49	VPS18	-0.11	migration z between -2 and 2; enough cells	0.78	5722
50	RBM41	0.97	migration z between -2 and 2; enough cells	1.14	6178
51	COPG1	-0.88	migration z between -2 and 2; enough cells	0.66	6167
52	SYT14P1	-0.37	under 3300 nuclei; migration not judged	0.79	3028
53	C9orf40	-0.73	migration z between -2 and 2; enough cells	0.7	5326
54	TPH1	0.26	migration z between -2 and 2; enough cells	0.86	5970
55	CPOX	0.13	migration z between -2 and 2; enough cells	0.83	4404
56	ACVR1C	1.29	migration z between -2 and 2; enough cells	1.05	3546
57	FGF2	-0.7	migration z between -2 and 2; enough cells	0.67	7039
58	ABHD10	1.56	migration z between -2 and 2; enough cells	1.29	6532
59	PCCA	-0.42	migration z between -2 and 2; enough cells	0.72	4933
60	XRCC5	1.01	migration z between -2 and 2; enough cells	1	5649
61	FYB2	-0.6	migration z between -2 and 2; enough cells	0.73	5910
62	TMC1	3.29 (active)	migration z above 2; enough cells	1.74	8528
63	PDGFA	0.5	migration z between -2 and 2; enough cells	0.9	6167
64	MEGF8	-0.79	migration z between -2 and 2; enough cells	0.68	6689
65	NAP1L1	-0.32	migration z between -2 and 2; enough cells	0.8	5674
66	BMP2	-1.25	migration z between -2 and 2; enough cells	0.56	4374
67	ABCB10	-0.76	migration z between -2 and 2; enough cells	0.66	6080
68	ZNF136	0.29	migration z between -2 and 2; enough cells	0.86	5447
69	MFSD2B	0.06	migration z between -2 and 2; enough cells	0.9	6060
70	TGFBR3	0.36	migration z between -2 and 2; enough cells	0.88	5846
71	SCGB1A1	-2.82	under 3300 nuclei; migration not judged	0.16	3251
72	SCAF4	1.89	migration z between -2 and 2; enough cells	1.38	6194
73	DPH3	-0.14	migration z between -2 and 2; enough cells	0.85	6358
